In patent US11452714B2, “Antibacterial agents including histidine kinase inhibitors” (Regents of the University of Minnesota, priority 2017, dated 2022):

The compounds below were run against T1, HK853 (Thermotoga maritima, UniProt Q9WZV7). Conditions: in words.
T1 sequence (Q9WZV7 232-489): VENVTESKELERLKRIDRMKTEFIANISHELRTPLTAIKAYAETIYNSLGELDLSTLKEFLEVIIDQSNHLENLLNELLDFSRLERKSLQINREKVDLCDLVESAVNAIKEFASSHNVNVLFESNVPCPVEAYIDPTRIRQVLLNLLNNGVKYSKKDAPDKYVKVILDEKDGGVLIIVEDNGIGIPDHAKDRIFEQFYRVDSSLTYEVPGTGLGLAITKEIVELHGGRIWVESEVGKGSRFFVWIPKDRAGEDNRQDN

Row | SMILES | inhibition of HKs
1 | Nc1nc2ccc(C(F)(F)F)cc2s1 [Rilu-6] | found to inhibit HKs
2 | Cc1nc2ccc(N)cc2s1 [Rilu-7] | found to inhibit HKs
3 | COc1ccc2nc(N)sc2c1 [Rilu-8] | found to inhibit HKs
4 | Nc1ccc2nc(N)sc2c1 [Rilu-9] | found to inhibit HKs
